This passage reports Ki results from patent US10100022B2, “Sphingosine kinase inhibitors” (University of Virginia Patent Foundation, priority 2014, dated 2018).

By UniProt entry, the sequences of proteins in these tests, tags left out.
UniProt Q9NRA0, whole entry: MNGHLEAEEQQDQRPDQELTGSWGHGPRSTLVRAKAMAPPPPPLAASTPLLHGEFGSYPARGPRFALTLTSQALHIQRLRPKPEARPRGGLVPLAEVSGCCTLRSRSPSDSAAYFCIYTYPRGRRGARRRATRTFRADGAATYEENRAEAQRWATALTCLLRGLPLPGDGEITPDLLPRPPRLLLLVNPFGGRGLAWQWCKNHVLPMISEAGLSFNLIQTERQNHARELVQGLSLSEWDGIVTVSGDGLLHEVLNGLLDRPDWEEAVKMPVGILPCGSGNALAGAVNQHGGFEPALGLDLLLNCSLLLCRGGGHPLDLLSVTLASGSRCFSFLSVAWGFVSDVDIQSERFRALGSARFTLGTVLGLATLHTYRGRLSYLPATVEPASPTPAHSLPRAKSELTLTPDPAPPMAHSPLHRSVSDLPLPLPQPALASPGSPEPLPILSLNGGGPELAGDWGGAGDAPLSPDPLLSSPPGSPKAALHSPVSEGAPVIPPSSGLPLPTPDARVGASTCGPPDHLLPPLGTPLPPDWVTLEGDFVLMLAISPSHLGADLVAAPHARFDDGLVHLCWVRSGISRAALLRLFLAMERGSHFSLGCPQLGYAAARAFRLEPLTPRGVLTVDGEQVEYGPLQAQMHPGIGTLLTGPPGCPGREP
UniProt Q9NYA1, whole entry: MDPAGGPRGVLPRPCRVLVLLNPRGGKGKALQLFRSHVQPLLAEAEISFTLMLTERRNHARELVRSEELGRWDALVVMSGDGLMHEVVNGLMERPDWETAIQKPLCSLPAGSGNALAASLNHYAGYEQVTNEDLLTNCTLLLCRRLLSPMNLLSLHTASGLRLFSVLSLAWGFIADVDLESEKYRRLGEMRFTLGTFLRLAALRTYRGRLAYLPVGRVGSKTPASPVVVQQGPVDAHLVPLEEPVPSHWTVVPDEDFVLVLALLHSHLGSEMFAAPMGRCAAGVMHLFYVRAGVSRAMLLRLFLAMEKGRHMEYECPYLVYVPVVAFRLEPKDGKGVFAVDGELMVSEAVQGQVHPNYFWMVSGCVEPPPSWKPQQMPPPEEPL

Where two headings read alike, the source gives them in different places. The match of structure and compound is tentative.

Assay [1] deals with human sphingosine kinase type 2 (hSPHK2) (Homo sapiens, UniProt Q9NRA0). Kind of assay: Sphingosine kinase assay, recombinant human SPHK2 ([32P]S1P product, scintillation counting). The class given is biochemical.
In assay [2] the target is human sphingosine kinase type 1 (hSPHK1) (Homo sapiens, UniProt Q9NYA1). Briefly: Sphingosine kinase assay, recombinant human SPHK1 ([32P]S1P product, scintillation counting). The class given is biochemical. The settings on record: read-out: activity hSPHK1 (range estimate of KI), tested form: TFA.

As usually defined, the Ki is a measure of affinity in units of concentration, obtained from inhibition or displacement. Regarding `CCCCCCCCCn1ccc2cc(-c3noc([C@@H]4CCCN4C(=N)N)n3)ccc21`, in assay [1] (read-out: activity hSPHK2 (range estimate of KI), tested form: HCl), the Ki is < 1000 nM. Take `CCCCC/C=C/COc1ccc(-c2noc([C@@H]3CCCN3C(=N)N)n2)cc1C(F)(F)F`: the Ki in assay [1] (read-out: activity hSPHK2 (range estimate of KI), tested form: TFA) is < 1000 nM; in assay [2], > 10 µM.
